## Screening data, single-dose tests

Amino acid sequences for entries named in this document (tags omitted).
UniProt P9WFT3, whole entry: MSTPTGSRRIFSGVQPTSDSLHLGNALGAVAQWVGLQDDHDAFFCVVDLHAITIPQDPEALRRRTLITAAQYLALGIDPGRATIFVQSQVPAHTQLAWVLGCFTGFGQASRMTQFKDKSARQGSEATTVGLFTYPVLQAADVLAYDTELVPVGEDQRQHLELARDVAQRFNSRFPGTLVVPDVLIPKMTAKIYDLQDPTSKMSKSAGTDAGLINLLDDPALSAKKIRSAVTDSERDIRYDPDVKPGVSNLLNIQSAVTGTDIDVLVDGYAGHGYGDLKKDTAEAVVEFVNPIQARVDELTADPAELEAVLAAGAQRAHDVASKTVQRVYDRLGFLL

Data taken from ChEMBL document CHEMBL3988442, “University of Dundee, Small-Polar-MMV Screening Library” (2021).

The filed quantity is “Percent Effect” (%).
The controls that fix the scale are not given in the record; negative values are as filed.
This is an unselected part of the compounds tested.

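Tryptophan-tRNA ligase, Mycobacterium tuberculosis (UniProt P9WFT3). Enzyme assay of tryptophanyl-tRNA synthetase; the read-out is not stated. Compounds at 10 µM. Direction is not recorded; retested compounds ran higher, which suggests that high means inhibition. About 65,000 compounds were tested under these conditions; 0.098% (about 64) showed 50% or more at least once.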

- COc1cc(CNC(=O)C(C)SC)cc(Br)c1OC (configuration not stated) : -1.251%
- CN(C)C(=O)c1csc(-c2ccoc2)n1 : -6.914%
- CCC(C(=O)NC(C)(C)C)n1cccc(OC)c1=O (configuration not stated) : 0.819%
- Cc1nn(C)c(C)c1CN(C(=O)c1cc(Cl)c[nH]c1=O)C(C)C : -2.89%
- COCc1cccc(NC(C)C(=O)N(C)Cc2cccc(F)c2)c1 (configuration not stated) : -2.012%
- Cc1nc(-c2ccccc2C)n(CC(=O)NC(C)C2CC2)n1 (configuration not stated) : -0.55%
- O=c1c2cccc(C(F)(F)F)c2ncn1C1CCNC1 (configuration not stated) : -0.06345%
- CN(Cc1ccsc1)C(=O)Nc1ccc(S(C)(=O)=O)cc1 : -4.699%
- CC(C)c1nc(-c2ccc(=O)[nH]n2)n(-c2ccc3c(c2)OCO3)n1 : 6.936%
- Fc1ccc(-c2nnc(CN3CCCC(Cn4cncn4)C3)o2)cc1 (configuration not stated) : -10.59%
- O=C(NCCN1CCCC(CO)C1)c1ccc2scnc2c1 (configuration not stated) : 0.5455%
- COc1nc(C)c(C(=O)N2CCc3[nH]nc(C4CCCC4)c3C2)s1 : -0.3882%
- CNc1cc(N2CCCC2CNCc2cnc(C)s2)ncn1 (configuration not stated) : -3.848%
- Cc1cc(C)n(C2CN(C(=O)Cn3c(C)cc(=O)c4ccccc43)C2)n1 : -0.3846%
- Cn1ccnc1C1CCN(S(=O)(=O)c2ccc3oc(=O)[nH]c3c2)CC1 : -0.2129%
- COc1ccc(C)cc1Nc1nc2c(C)nn(C)c2c(=O)n1C : 2.724%
- Cc1ccnn1CCC(=O)N1C[C@H]2CC[C@@H]1CN(CC(=O)N(C)C)C2 : -1.143%
- O=C(Cc1ccc2c(c1)OCCO2)N1CCCC(n2cncn2)C1 (configuration not stated) : -1.221%
- NC(=O)c1ccnc(N2CCCC(CO)(Cc3ccc(F)cc3)C2)c1 (configuration not stated) : 1.354%
- O=C(c1ccncc1)N1C[C@@H]2CC[C@H](C1)N(C(=O)C1CCCC1)C2 : 1.443%
- Cc1nc(NC(=O)C(C)N(C)Cc2cccc(C#N)c2)sc1C (configuration not stated) : 2.637%
- COCCN1CCO[C@@H]2CN(C(=O)Cc3ccccc3)CC[C@@H]2C1 : -0.366%
- Cc1cc(S(=O)(=O)N2C[C@H](C3CC3)[C@@H](N)C2)c(C)s1 : 1.708%
- Cc1c(Br)cnn1CC(=O)Nc1ccon1 : 2.164%
- O=C(Nc1cc(-c2ccncc2)no1)C1CCCCC1 : -4.262%
- CC(=O)N1CCC12CCN(Cc1ccco1)CC2 : 9.738%
- CCC(C)NC(=O)c1ccc(NC(=O)CCc2ccncc2)c(C)c1 (configuration not stated) : 0.5128%
- O=S(=O)(c1cc(F)ccc1F)N1CCCC1c1ccco1 (configuration not stated) : 3.097%
- COCC(=O)N1CCC2(CCCN(Cc3ccc(Cl)cc3)CC2)CC1 : -2.46%
- CCc1nccn1C1CCCN(C(=O)c2csc(C3CC3)n2)C1 (configuration not stated) : -0.5801%
- O=C(CNC(=O)c1ccoc1)NC(c1ccc(F)cc1)C(F)(F)F (configuration not stated) : -1.452%
- c1cnnc(N2CCCC(NCc3ccc(-n4ccnc4)cc3)C2)c1 (configuration not stated) : 1.016%
- CC(=O)c1ccc(N2CCC3(CCC(=O)N(CCCO)C3)CC2)nc1 : -3.382%
- O=C1CC(c2ccncc2)C2(CCN(Cc3nccs3)CC2)N1 (configuration not stated) : 1.221%
- COc1ccc(C2=Nn3c(CN)nnc3-c3ccccc3C2)cc1 : 1.492%
- Cc1cccc(-c2nc(CN(Cc3cccs3)CC3CCCO3)no2)c1 (configuration not stated) : -5.945%
- COc1cc(C2C3=C(COC3=O)Nc3[nH]nc(C)c32)cc(Br)c1O (configuration not stated) : -0.764%
- CCN(CC1CN(Cc2c(C)noc2C)CCO1)c1cccnn1 (configuration not stated) : 1.376%
- CN(C)C(CNC(=O)OCC(F)(F)F)c1ccsc1 (configuration not stated) : -0.6536%